Test results taken from patent US20050042293A1, “Polymeric systems for drug delivery and uses thereof” (The University of British Columbia, priority 1997, published 2005).
Some of these results come from one statement about several compounds together.

experiment: Drug-dependent solidification: time for paste pellets to break up under stirring at 300 rpm at 37° C.; format: physicochemical; conditions: 10% w/w drug in 40:60 (TB:MePEG350) paste; 1 hour at 37° C. then 300 rpm

Row | SMILES | time paste pellet stayed intact under stirring
1 | C[C@@H]1[C@H](O)[C@@H](C)/C=C/C=C/C=C/C=C/C=C/C=C/C=C/[C@H](O[C@@H]2O[C@H](C)[C@@H](O)[C@H](N)[C@@H]2O)C[C@@H]2O[C@](O)(C[C@@H](O)C[C@@H](O)[C@H](O)CC[C@@H](O)C[C@@H](O)CC(=O)O[C@H]1C)C[C@H](O)[C@H]2C(=O)O [Amphotericin] | over 4 minutes
2 | O=c1c(-c2ccc(O)cc2)coc2cc(O)cc(O)c12 [Genistein] | over 4 minutes
3 | COc1cc(/C=C/C(=O)CC(=O)/C=C/c2ccc(O)c(OC)c2)ccc1O [Curcumin] | over 4 minutes
4 | CC1=C(/C=C/C(C)=C/C=C/C(C)=C/C(=O)O)C(C)(C)CCC1 [Tretinoin] | over 4 minutes
5 | CC(=O)O[C@H]1C(=O)[C@@]2(C)[C@H]([C@H](OC(=O)c3ccccc3)[C@]3(O)C[C@H](OC(=O)[C@H](O)[C@@H](NC(=O)c4ccccc4)c4ccccc4)C(C)=C1C3(C)C)[C@]1(OC(C)=O)CO[C@@H]1C[C@@H]2O [Paclitaxel] | over 4 minutes
6 | CC[C@@]1(O)C(=O)OCc2c1cc1n(c2=O)Cc2cc3ccccc3nc2-1 [Camptothecin] | over 4 minutes
